Data source: PubChem BioAssay AID1224826 (NIAID, 2016)
The whole screen tested about 17,000 reagents; shown is an unselected part. In the full data, about 1,110 (6.6%) were called active. 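Active means lowered or raised reporter signal; replicate intensities are raw and not normalised per plate.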 Unmarked entries are inactive. Further read-outs or replicates are left out here. Reagent sequences are not shown.

- Test: 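Knock-downs that raise or lower Tnf reporter signal after endotoxin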 (primary screen)
- Cells: RAW264.7 G9 macrophages from mouse bearing reporters for p65 (GFP) and the Tnf promoter (mCherry)
- Reagent: siRNA pool against mouse genes, 100 nM
- Duration: 16 h of LPS stimulation, after 2 days of siRNA transfection
- Treatment: bacterial lipopolysaccharide (Salmonella minnesota R595), 10 ng/ml
- Read-out: 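Imaged Tnf reporter mCherry in nuclei, minus background, normalised per plate to the median and expressed as robust z-scores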
- Reading the numbers: Tnf reporter robust z-score: higher = stronger Tnf promoter reporter signal after LPS
- Hit rule: 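a well counts as active at a score of -1.3 or below (Tlr4 knock-down control median) or above 3 (raised signal); controls and wells holding fewer than 50 cells are excluded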
- Meaning of the calls: active = Tnf reporter clearly lowered or raised; inactive = no clear change in Tnf reporter

Npm1
- Tnf reporter robust z-score: -0.97
- fewer than 50 cells in well: enough cells in well

Fasn
- Tnf reporter robust z-score: -1.2
- fewer than 50 cells in well: enough cells in well

Zfp92
- Tnf reporter robust z-score: 0.22
- fewer than 50 cells in well: enough cells in well

Tas2r110
- fewer than 50 cells in well: fewer than 50 cells per well; well left out of calls

Or4k47
- Tnf reporter robust z-score: 0.33
- fewer than 50 cells in well: enough cells in well

Klra1
- Tnf reporter robust z-score: -0.73
- fewer than 50 cells in well: enough cells in well

Nkain3
- Tnf reporter robust z-score: 0.85
- fewer than 50 cells in well: enough cells in well

Hddc3
- Tnf reporter robust z-score: 0.31
- fewer than 50 cells in well: enough cells in well

Ahrr
- Tnf reporter robust z-score: 0.8
- fewer than 50 cells in well: enough cells in well

Plekho2
- Tnf reporter robust z-score: -1.31 (active)
- fewer than 50 cells in well: enough cells in well

Pou3f2
- Tnf reporter robust z-score: -0.72
- fewer than 50 cells in well: enough cells in well

Plpp7
- Tnf reporter robust z-score: 1.39
- fewer than 50 cells in well: enough cells in well

Cd300lb
- Tnf reporter robust z-score: 0.72
- fewer than 50 cells in well: enough cells in well

Vmn1r44
- Tnf reporter robust z-score: -0.47
- fewer than 50 cells in well: enough cells in well
